Patent publication US20230390363A1 (PURDUE RESEARCH FOUNDATION, priority 2020, published 2023)

Test: general procedure: Fmoc solid-phase peptide synthesis; Wang resin (0.6 mmol/g); 2-chlorotrityl resin (0.6 mmol/g) for branched targeting ligands; HBTU/NMM, double coupling with PyBOP/NMM
Conditions: whole synthesis

With “PTHrP(1-46) with Glu22, Glu25, Leu23, Leu28, Leu31, Lys26, Lys30, Aib29, C-terminally fused to D-Glu20 (DE20)” the “final HPLC purity” value (HPLC and mass spectrometry) was 94% and the isolated yield (overall) was 19%.
